Paper PMC6222128

B1: up-frameshift protein 1 (UPF1), endogenous (protein, UniProt Q92900 1-1129)
chain: MSVEAYGPSSQTLTFLDTEEAELLGADTQGSEFEFTDFTLPSQTQTPPGGPGGPGGGGAGGPGGAGAGAAAGQLDAQVGPEGILQNGAVDDSVAKTSQLLAELNFEEDEEDTYYTKDLPIHACSYCGIHDPACVVYCNTSKKWFCNGRGNTSGSHIVNHLVRAKCKEVTLHKDGPLGETVLECYNCGCRNVFLLGFIPAKADSVVVLLCRQPCASQSSLKDINWDSSQWQPLIQDRCFLSWLVKIPSEQEQLRARQITAQQINKLEELWKENPSATLEDLEKPGVDEEPQHVLLRYEDAYQYQNIFGPLVKLEADYDKKLKESQTQDNITVRWDLGLNKKRIAYFTLPKTDSGNEDLVIIWLRDMRLMQGDEICLRYKGDLAPLWKGIGHVIKVPDNYGDEIAIELRSSVGAPVEVTHNFQVDFVWKSTSFDRMQSALKTFAVDETSVSGYIYHKLLGHEVEDVIIKCQLPKRFTAQGLPDLNHSQVYAVKTVLQRPLSLIQGPPGTGKTVTSATIVYHLARQGNGPVLVCAPSNIAVDQLTEKIHQTGLKVVRLCAKSREAIDSPVSFLALHNQIRNMDSMPELQKLQQLKDETGELSSADEKRYRALKRTAERELLMNADVICCTCVGAGDPRLAKMQFRSILIDESTQATEPECMVPVVLGAKQLILVGDHCQLGPVVMCKKAAKAGLSQSLFERLVVLGIRPIRLQVQYRMHPALSAFPSNIFYEGSLQNGVTAADRVKKGFDFQWPQPDKPMFFYVTQGQEEIASSGTSYLNRTEAANVEKITTKLLKAGAKPDQIGIITPYEGQRSYLVQYMQFSGSLHTKLYQEVEIASVDAFQGREKDFIILSCVRANEHQGIGFLNDPRRLNVALTRARYGVIIVGNPKALSKQPLWNHLLNYYKEQKVLVEGPLNNLRESLMQFSKPRKLVNTINPGARFMTTAMYDAREAIIPGSVYDRSSQGRPSSMYFQTHDQIGMISAGPSHVAAMNIPIPFNLVMPPMPPPGYFGQANGPAAGRGTPKGKTGRGGRQKNRFGLPGPSQTNLPNSQASQDVASQPFSQGALTQGYISMSQPSQMSQPGLSQPELSQDSYLGDEFKSQIDVALSQDSTYQGERAYQHGGVTGLSQY
B2: UPF3B, endogenous (protein, UniProt Q9BZI7 1-483)
chain: MKEEKEHRPKEKRVTLLTPAGATGSGGGTSGDSSKGEDKQDRNKEKKEALSKVVIRRLPPTLTKEQLQEHLQPMPEHDYFEFFSNDTSLYPHMYARAYINFKNQEDIILFRDRFDGYVFLDNKGQEYPAIVEFAPFQKAAKKKTKKRDTKVGTIDDDPEYRKFLESYATDNEKMTSTPETLLEEIEAKNRELIAKKTTPLLSFLKNKQRMREEKREERRRREIERKRQREEERRKWKEEEKRKRKDIEKLKKIDRIPERDKLKDEPKIKVHRFLLQAVNQKNLLKKPEKGDEKELDKREKAKKLDKENLSDERASGQSCTLPKRSDSELKDEKPKRPEDESGRDYREREREYERDQERILRERERLKRQEEERRRQKERYEKEKTFKRKEEEMKKEKDTLRDKGKKAESTESIGSSEKTEKKEEVVKRDRIRNKDRPAMQLYQPGARSRNRLCPPDDSTKSGDSAAERKQESGISHRKEGGEE

Tests used:
[1] = molecular target: French Polynesian ZIKV capsid (H/PF/2013), C-terminal 2xStrep II tag (Zika virus (French Polynesian 2013 strain H/PF/2013, Asian lineage)); assay: affinity purification with mass spectrometry; 2xStrep II-tagged capsid expressed in HEK293T; clarified lysates on Strep-Tactin Superflow overnight at 4°C; eluted with desthiobiotin; LC-MS/MS, scored with SAINTq against GFP and empty vector
[2] = molecular target: Ugandan ZIKV capsid (MR 766), C-terminal 2xStrep II tag (Zika virus (Ugandan 1947 strain MR 766, African lineage)); assay: as above

Row | Binder | binding [1] | binding [2]
1 | B1 | binds | binds
2 | B2 | binds | binds

No constants are given. Whether binding was seen depends on the method and setting. Binding seen in cells or lysates may run through a third protein. Here binding means that the protein was enriched with, or labelled near, the bait; the list need not be complete.
